These are yes or no findings as the source states them, for the method shown. Binding seen in cells or lysates may run through a third protein. Some results given as binding are weak or reduced against the parent protein; the word gives no strength. Blank lines part the entries; values can stand above or below the binder they belong to.
Assays:
[1] = biological target: β-catenin (human (endogenous in HTR8)) (UniProt P35222); experiment: co-IP; extracts of HTR8 or p-USP2a/HTR8 cells made by brief sonication in IP buffer (50 mM Tris-HCl pH 8.0, 150 mM NaCl, 2 mM EDTA, 0.5% NP-40, 5% glycerol); 1-2 ug antibody overnight, protein A+G agarose, three washes, Western blot; the precipitating antibody is not stated
[2] = biological target: T1, TGF-β receptor (TGFBR1) (human (endogenous in HTR8)) (UniProt P36897); experiment: as above
T1 sequence: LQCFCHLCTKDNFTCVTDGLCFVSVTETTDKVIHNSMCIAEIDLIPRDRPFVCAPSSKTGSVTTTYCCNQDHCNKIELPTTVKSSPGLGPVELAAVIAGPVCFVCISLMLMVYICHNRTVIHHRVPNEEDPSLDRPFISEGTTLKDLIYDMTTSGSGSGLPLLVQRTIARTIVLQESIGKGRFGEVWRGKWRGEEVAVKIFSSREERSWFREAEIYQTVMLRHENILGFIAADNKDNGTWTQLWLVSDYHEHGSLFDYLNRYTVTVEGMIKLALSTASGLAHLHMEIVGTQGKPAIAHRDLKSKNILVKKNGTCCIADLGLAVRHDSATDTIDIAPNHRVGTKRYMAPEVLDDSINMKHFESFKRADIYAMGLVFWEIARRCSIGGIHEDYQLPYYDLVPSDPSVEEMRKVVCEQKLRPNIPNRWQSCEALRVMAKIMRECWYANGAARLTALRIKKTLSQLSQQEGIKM

Amino acid sequences for entries named in this document (tags omitted).
UniProt P35222: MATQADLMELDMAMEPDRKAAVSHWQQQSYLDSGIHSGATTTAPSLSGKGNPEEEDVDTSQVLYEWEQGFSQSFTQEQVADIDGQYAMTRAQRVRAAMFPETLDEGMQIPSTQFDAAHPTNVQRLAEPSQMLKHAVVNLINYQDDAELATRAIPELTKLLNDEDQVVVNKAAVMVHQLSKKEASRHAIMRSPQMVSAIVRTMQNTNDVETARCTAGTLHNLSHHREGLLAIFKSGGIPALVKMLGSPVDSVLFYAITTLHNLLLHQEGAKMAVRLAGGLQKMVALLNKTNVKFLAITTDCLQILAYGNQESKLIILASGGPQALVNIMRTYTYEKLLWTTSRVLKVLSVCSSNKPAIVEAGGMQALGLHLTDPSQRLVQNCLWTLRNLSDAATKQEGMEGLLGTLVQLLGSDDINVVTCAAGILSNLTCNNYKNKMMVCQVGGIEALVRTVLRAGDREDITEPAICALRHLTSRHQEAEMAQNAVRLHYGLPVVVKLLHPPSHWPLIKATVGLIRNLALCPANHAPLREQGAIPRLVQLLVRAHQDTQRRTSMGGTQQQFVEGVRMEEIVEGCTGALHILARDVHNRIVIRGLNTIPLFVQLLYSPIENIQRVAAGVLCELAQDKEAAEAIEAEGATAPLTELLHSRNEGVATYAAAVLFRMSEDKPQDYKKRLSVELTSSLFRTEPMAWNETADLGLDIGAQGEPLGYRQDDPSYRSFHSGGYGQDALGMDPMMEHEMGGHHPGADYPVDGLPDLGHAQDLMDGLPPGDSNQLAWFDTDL

binding [1]: binds
B1: Ubiquitin-specific protease 2a (USP2a), in HTR8 cells (enzyme, UniProt O75604-1 1-605)
chain: MSQLSSTLKRYTESARYTDAHYAKSGYGAYTPSSYGANLAASLLEKEKLGFKPVPTSSFLTRPRTYGPSSLLDYDRGRPLLRPDITGGGKRAESQTRGTERPLGSGLSGGSGFPYGVTNNCLSYLPINAYDQGVTLTQKLDSQSDLARDFSSLRTSDSYRIDPRNLGRSPMLARTRKELCTLQGLYQTASCPEYLVDYLENYGRKGSASQVPSQAPPSRVPEIISPTYRPIGRYTLWETGKGQAPGPSRSSSPGRDGMNSKSAQGLAGLRNLGNTCFMNSILQCLSNTRELRDYCLQRLYMRDLHHGSNAHTALVEEFAKLIQTIWTSSPNDVVSPSEFKTQIQRYAPRFVGYNQQDAQEFLRFLLDGLHNEVNRVTLRPKSNPENLDHLPDDEKGRQMWRKYLEREDSRIGDLFVGQLKSSLTCTDCGYCSTVFDPFWDLSLPIAKRGYPEVTLMDCMRLFTKEDVLDGDEKPTCCRCRGRKRCIKKFSIQRFPKILVLHLKRFSESRIRTSKLTTFVNFPLRDLDLREFASENTNHAVYNLYAVSNHSGTTMGGHYTAYCRSPGTGEWHTFNDSSVTPMSSSQVRTSDAYLLFYELASPPSRM

binding [2]: binds
B2: Ubiquitin-specific protease 2a (USP2a), overexpressed in HTR8 cells (p-USP2a/HTR8) (enzyme, UniProt O75604-1 1-605)
chain: B1 chain
